From PubChem BioAssay AID540256 (National Center for Advancing Translational Sciences (NCATS), 2011)
The whole screen tested about 300,000 compounds, of which about 3,700 (1.2%) were called active. Inconclusive means that the source gave no clear call. Such entries were picked first, then a sample of the others. The call rests on the fitted dose curve; tested in HEK293 cells. Where the call is inconclusive, the potency comes from a doubtful curve fit.

Assay: qHTS for Inhibitors of binding or entry into cells for Lassa Virus; further: nearly all actives have a fitted effect of over 50% in size
Settings: Lassa virus pseudotype entry inhibition, cell reporter; series mostly up to 37.9 µM
Potency means the concentration at half of the fitted maximal effect.

Row | SMILES | Potency
1 | O=C(Nc1ccc(S(=O)(=O)N2CCc3ccccc3C2)cc1)c1ccccc1 | inconclusive: 18.3 µM [inhibitor, single point]
2 | Cc1ccccc1C(=O)c1cccn1CC(=O)NC(C)c1ccccc1 (stereo unspecified) | inconclusive: 35.5 µM [inhibitor, single point]
3 | CCOC(=O)Cc1c(C)nc2c(-c3cccc(Br)c3)cnn2c1C | inconclusive: 35.5 µM [inhibitor, partial curve, poor fit]
4 | CCCCOc1cccc(C(=O)Nc2ccc(NC(=O)c3cccs3)cc2)c1 | inconclusive: 35.5 µM [inhibitor, single point]
5 | Cc1cccc(C)c1OCC(=O)Nc1ccc(NC(=O)c2ccco2)cc1 | inactive
6 | CCOC(=O)C1(S(=O)(=O)c2ccc(Cl)cc2)CCN(Cc2ccccc2)CC1 | inconclusive: 25.9 µM [inhibitor, partial curve, poor fit]
7 | CCOC(=O)c1cc2c(=O)n3ccccc3nc2n(Cc2ccco2)c1=NC(=O)c1ccc(OC)cc1OC | inactive
8 | N=c1c2c(-c3ccccc3)c(-c3ccccc3)n(Cc3ccco3)c2ncn1CCO | inconclusive: 11.2 µM [inhibitor, partial curve, poor fit]
9 | O=[N+]([O-])c1cccc(/C=N/Nc2cc(Cl)nc(-c3ccccc3)n2)c1 | active: 10 µM
10 | NC(=O)CCN(Cc1ccccc1)S(=O)(=O)c1ccccc1 | inconclusive: 0.58 µM [inhibitor, partial curve, poor fit]
11 | COc1cc(C2C(C#N)=C(N)Oc3cc(N)ccc32)cc(OC)c1OC (stereo unspecified) | inconclusive: 5.01 µM [inhibitor, partial curve, poor fit]
12 | Cc1noc(C)c1CSCC(=O)OCC(=O)NC1CCCCC1 | inactive
13 | Cn1cnc2c(ncn2C2OC(CO)C(O)C2O)c1=S (stereo unspecified) | inactive
14 | COc1cccc(N2CCN(S(=O)(=O)c3ccc4ccccc4c3)CC2)c1 | inconclusive: 2.24 µM [inhibitor, partial curve, poor fit]
15 | CC(=O)Nc1ccc(S(=O)(=O)Nc2cc3c(cc2C(C)=O)OCO3)cc1 | inconclusive: 25.9 µM [inhibitor, single point]
16 | Cc1ccc(-c2nn(-c3ccccc3)cc2NC(=O)CCl)cc1 | inconclusive: 11.2 µM [inhibitor, partial curve, poor fit]
17 | CCCCCC(=O)Nc1ccc(S(=O)(=O)Nc2cc(OC)nc(OC)n2)cc1 | inconclusive: 0.891 µM [inhibitor, full curve, poor fit]
18 | CCc1ccc(NS(=O)(=O)c2ccc3[nH]cc(C(=O)NCCCOC(C)C)c(=O)c3c2)cc1 | inconclusive: 6.31 µM [inhibitor, full curve, poor fit]
19 | CCCSc1nc2c([nH]c3ccccc32)c(=O)n1C | inconclusive: 7.94 µM [inhibitor, partial curve, poor fit]
20 | CN1C2CCC1/C(=C\c1ccccc1F)C(=O)/C2=C/c1ccccc1F | inactive
21 | COc1ccc(Nc2cc(C(=O)NCCCN3CCOCC3)c3ccccc3n2)c(OC)c1 | inactive
22 | COCCNC(=S)N(CCc1c(C)[nH]c2ccc(Cl)cc12)Cc1cccs1 | inconclusive: 10 µM [inhibitor, partial curve, poor fit]

Compounds from the list above with sulfur (12):
Row | SMILES | Potency
1 | O=C(Nc1ccc(S(=O)(=O)N2CCc3ccccc3C2)cc1)c1ccccc1 | inconclusive: 18.3 µM [inhibitor, single point]
4 | CCCCOc1cccc(C(=O)Nc2ccc(NC(=O)c3cccs3)cc2)c1 | inconclusive: 35.5 µM [inhibitor, single point]
6 | CCOC(=O)C1(S(=O)(=O)c2ccc(Cl)cc2)CCN(Cc2ccccc2)CC1 | inconclusive: 25.9 µM [inhibitor, partial curve, poor fit]
10 | NC(=O)CCN(Cc1ccccc1)S(=O)(=O)c1ccccc1 | inconclusive: 0.58 µM [inhibitor, partial curve, poor fit]
12 | Cc1noc(C)c1CSCC(=O)OCC(=O)NC1CCCCC1 | inactive
13 | Cn1cnc2c(ncn2C2OC(CO)C(O)C2O)c1=S (stereo unspecified) | inactive
14 | COc1cccc(N2CCN(S(=O)(=O)c3ccc4ccccc4c3)CC2)c1 | inconclusive: 2.24 µM [inhibitor, partial curve, poor fit]
15 | CC(=O)Nc1ccc(S(=O)(=O)Nc2cc3c(cc2C(C)=O)OCO3)cc1 | inconclusive: 25.9 µM [inhibitor, single point]
17 | CCCCCC(=O)Nc1ccc(S(=O)(=O)Nc2cc(OC)nc(OC)n2)cc1 | inconclusive: 0.891 µM [inhibitor, full curve, poor fit]
18 | CCc1ccc(NS(=O)(=O)c2ccc3[nH]cc(C(=O)NCCCOC(C)C)c(=O)c3c2)cc1 | inconclusive: 6.31 µM [inhibitor, full curve, poor fit]
19 | CCCSc1nc2c([nH]c3ccccc32)c(=O)n1C | inconclusive: 7.94 µM [inhibitor, partial curve, poor fit]
22 | COCCNC(=S)N(CCc1c(C)[nH]c2ccc(Cl)cc12)Cc1cccs1 | inconclusive: 10 µM [inhibitor, partial curve, poor fit]

(listing goes on)

Row | SMILES | Potency
23 | Cc1cccc(COc2ncnc3nc[nH]c23)c1 | inconclusive: 17.8 µM [inhibitor, single point]
24 | Cc1ccc(N(CC(=O)NCC(O)c2ccccc2)S(=O)(=O)c2ccc(C)cc2)cc1 (stereo unspecified) | inconclusive: 0.282 µM [activator, full curve, poor fit]
25 | O=C(Nc1ccc(N2CCOCC2)cc1)NC1CCCCC1 | inconclusive: 11.6 µM [activator, partial curve, poor fit]
26 | OC(CNCCC(c1ccccc1)c1ccccc1)COc1ccccc1 (stereo unspecified) | inconclusive: 11.2 µM [inhibitor, single point]
27 | Nc1nc(CN2CCN(c3ccccn3)CC2)nc(Nc2ccc(Cl)cc2)n1 | inconclusive: 9.2 µM [inhibitor, partial curve, poor fit]
28 | Cc1ccc(C(C)C)c(OCC(O)CN2CCc3ccccc3C2)c1 (stereo unspecified) | inconclusive: 2.82 µM [inhibitor, partial curve, poor fit]
29 | CCC(Sc1nnc(C)n2c1cc1occc12)C(=O)Nc1ccccc1OC (stereo unspecified) | inactive
30 | CN1CCN(Cc2cccc3ncccc23)CC1CCO (stereo unspecified) | inconclusive: 8.91 µM [activator, single point]
31 | COc1ccc(S(=O)(=O)NC(CCSC)C(=O)NC2CCCCC2)cc1 (stereo unspecified) | inconclusive: 6.31 µM [inhibitor, single point]
32 | Cn1c(=O)oc2cc(S(=O)(=O)NCCC(=O)N3CC=C(c4ccccc4)CC3)ccc21 | inactive
33 | Cc1cccc(N2C(=O)/C(=C\c3ccc(OC(F)F)cc3)c3ccccc3C2=O)c1 | inconclusive: 15.8 µM [activator, single point]
34 | COc1ccc(-n2c(=O)[nH]c3cc(C(=O)NCCc4ccccc4)ccc3c2=O)cc1OC | inconclusive: 6.31 µM [activator, single point]
35 | CCCS(=O)(=O)c1nc(S(=O)(=O)c2ccc(C)cc2)c(NC)s1 | inactive
36 | Cc1ccc(-n2ncc(C(=O)N3CCCCC3)c2C2CCN(C(=O)OC(C)(C)C)CC2)c(C)c1 | inconclusive: 2.24 µM [inhibitor, full curve]
37 | COC(=O)c1ccccc1S(=O)(=O)N1CCC(C(=O)OCc2ccc([N+](=O)[O-])cc2)CC1 | inconclusive: 1.26 µM [activator, single point]
38 | CN(C)c1ccc(CNC(=O)Cn2c(=O)oc3cc(S(=O)(=O)N4CCCCCC4)ccc32)cc1 | inconclusive: 35.5 µM [inhibitor, single point]
39 | Cc1ccc(NC(=O)Cc2coc3ccc(C(C)C)cc23)cc1Cl | inconclusive: 3.16 µM [inhibitor, full curve, poor fit]
40 | COc1cccc(CC2(CO)CCCN(Cc3cc4ccccc4[nH]3)C2)c1 (stereo unspecified) | inconclusive: 29.1 µM [inhibitor, single point]
41 | O=C(CSc1nc(COc2ccccc2)nc2ccccc12)NC1CCCC1 | inactive
42 | O=c1c2ccccc2ncn1-c1ccc(Cl)cc1 | inconclusive: 2.51 µM [activator, partial curve, poor fit]
43 | COc1ccc2nc(Nc3nc(-c4cc5ccccc5oc4=O)cs3)sc2c1 | inconclusive: 4.47 µM [inhibitor, single point]
44 | Cc1ccc(N(C)C(=O)Oc2ccc(C(=O)c3ccc(Cl)cc3)cc2)cc1 | inconclusive: 14.1 µM [inhibitor, partial curve, poor fit]

Another view of some results above.

| Row | SMILES | Potency |
| --- | --- | --- |
| 30 | CN1CCN(Cc2cccc3ncccc23)CC1CCO (stereo unspecified) | inconclusive: 8.91 µM [activator, single point] |
| 31 | COc1ccc(S(=O)(=O)NC(CCSC)C(=O)NC2CCCCC2)cc1 (stereo unspecified) | inconclusive: 6.31 µM [inhibitor, single point] |

More compounds follow:

Row | SMILES | Potency
45 | Cc1ccc(N(CC(=O)Nc2ccc(Cl)cc2)S(=O)(=O)c2cccc3nonc23)cc1 | inactive
46 | COC(=O)C(=O)/C=C(\O)c1c(C)cc(C)cc1C | inconclusive: 1.26 µM [inhibitor, partial curve, poor fit]
47 | O=C(c1ccc(Cl)cc1Cl)N1CCc2ccccc21 | inactive
48 | COc1ccc(NC(=O)c2oc3ccccc3c2NC(=O)COc2ccc(C(C)C)cc2)c(OC)c1 | inactive
49 | Cc1sc(NC(=O)/C=C/c2ccco2)c(C(=O)OC(C)C)c1C | inconclusive: 0.398 µM [activator, single point]
50 | COc1cccc2c1C(=O)C=C(C)C2=O | active: 11.2 µM
51 | CCC(=O)Nc1ccc(S(=O)(=O)N2CCC(c3nc4ccccc4[nH]3)CC2)cc1 | inconclusive: 0.708 µM [activator, full curve, poor fit]
52 | O=C(N/N=C/C1CCCCC1)c1cc(Cl)ccc1O | inactive
53 | O=C(NCc1ccc(F)cc1)c1noc2c1CCCC2 | inconclusive: 7.3 µM [inhibitor, single point]
54 | CCn1cc(C(=O)NCc2ccc(Cl)cc2)c(=O)c2cc(S(=O)(=O)N(C)C3CCCCC3)ccc21 | inconclusive: 11.2 µM [inhibitor, single point]
55 | Cc1nc2ccccc2c2c1C(=O)N(c1cccc(C(=O)O)c1)C2=O | inactive
56 | Cc1ccc(S(=O)(=O)N2C(=O)CCC2C(=O)NCc2ccco2)cc1 (stereo unspecified) | inconclusive: 3.66 µM [activator, partial curve, poor fit]
57 | Cc1csc(NC(=O)c2sc3nc(-c4cccs4)ccc3c2N)n1 | inconclusive: 18.3 µM [inhibitor, partial curve]
58 | C=CCn1c(O)c(C(C)=NCCC(c2ccccc2)c2ccccc2)c(=O)[nH]c1=O | inconclusive: 0.631 µM [inhibitor, full curve]
59 | Cc1cc2n(n1)C(c1cccs1)Nc1ccccc1-2 (stereo unspecified) | inactive
60 | O=C(COc1ccc(-n2cnnn2)cc1)Nc1cc(Cl)cc(Cl)c1 | inconclusive: 20 µM [inhibitor, partial curve, poor fit]
61 | Cc1ccc(C(=O)Nc2cccc(S(=O)(=O)N(C)c3ccccc3)c2)o1 | inconclusive: 20 µM [inhibitor, single point]
62 | CCN(C(=O)C1=COCCO1)c1nc2c(C)cccc2s1 | inconclusive: 31.6 µM [activator, single point]
63 | O=C(CN1CCOCC1)Nc1c2c(nc3c1CCC3)CCC2 | inconclusive: 14.1 µM [activator, partial curve, poor fit]
64 | COc1ccc(OCC(=O)OCC(=O)NC2CCCC2)cc1 | inactive
65 | CCOC(=O)C1=C(C)Nc2nnnn2C1c1cccnc1 (stereo unspecified) | inconclusive: 9.2 µM [inhibitor, partial curve, poor fit]
66 | COC(=O)c1sccc1S(=O)(=O)N(CC(=O)NCc1ccc(C)cc1)c1ccc(C)cc1 | inconclusive: 22.4 µM [inhibitor, partial curve, poor fit]
